Laboratory results reported in publication PMC9106302.

Sequences of proteins named here, by UniProt entry; tags and fusion partners are left off. A change or cut given only in a name is not applied to a line headed by its entry.
UniProt Q7K180: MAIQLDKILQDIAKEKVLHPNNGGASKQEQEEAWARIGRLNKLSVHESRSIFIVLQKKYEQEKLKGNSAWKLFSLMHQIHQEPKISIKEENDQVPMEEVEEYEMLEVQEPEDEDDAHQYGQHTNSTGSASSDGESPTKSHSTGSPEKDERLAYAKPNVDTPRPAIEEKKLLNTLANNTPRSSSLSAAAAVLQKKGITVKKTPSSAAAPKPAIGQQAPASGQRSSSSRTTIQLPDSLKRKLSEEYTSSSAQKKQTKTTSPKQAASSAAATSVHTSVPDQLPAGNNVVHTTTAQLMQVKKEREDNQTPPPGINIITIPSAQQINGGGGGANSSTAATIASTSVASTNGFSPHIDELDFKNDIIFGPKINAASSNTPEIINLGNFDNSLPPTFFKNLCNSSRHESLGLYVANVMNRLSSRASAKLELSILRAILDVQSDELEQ

Key:
Assay in all cases: pull-down; untagged Cp190 and/or Cp60 co-expressed with the GFP-tagged bait in E. coli Rosetta; clarified lysate (50 mM tris pH 7.5, 200 mM NaCl, 5% glycerol, 25 mM imidazole) on GFP-binder resin 1 hour at 4°C; SDS-PAGE and Coomassie staining
[1] = molecular target: T1, GFP-tagged CTCF[610-818] (C terminus) (D. melanogaster) (UniProt Q9VS55)
T1 sequence: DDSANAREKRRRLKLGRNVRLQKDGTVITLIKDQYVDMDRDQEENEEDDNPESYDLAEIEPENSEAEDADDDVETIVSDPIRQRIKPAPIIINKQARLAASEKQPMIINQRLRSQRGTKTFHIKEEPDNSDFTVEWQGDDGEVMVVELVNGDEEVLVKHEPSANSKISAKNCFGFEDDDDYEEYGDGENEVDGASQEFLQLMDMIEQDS

[2] = molecular target: T2, GFP-tagged Ibf1[1-242] (full length) (D. melanogaster) (UniProt Q9VHG5)
T2 sequence: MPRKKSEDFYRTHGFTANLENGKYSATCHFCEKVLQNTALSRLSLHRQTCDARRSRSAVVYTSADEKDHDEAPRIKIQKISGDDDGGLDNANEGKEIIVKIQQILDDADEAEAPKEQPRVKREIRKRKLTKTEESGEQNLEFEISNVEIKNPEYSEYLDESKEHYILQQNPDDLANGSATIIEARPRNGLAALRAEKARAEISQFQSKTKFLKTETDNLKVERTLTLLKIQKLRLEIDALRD

[3] = molecular target: T3, GFP-tagged Ibf2[1-195] (full length) (D. melanogaster) (UniProt Q9VHG6)
T3 sequence: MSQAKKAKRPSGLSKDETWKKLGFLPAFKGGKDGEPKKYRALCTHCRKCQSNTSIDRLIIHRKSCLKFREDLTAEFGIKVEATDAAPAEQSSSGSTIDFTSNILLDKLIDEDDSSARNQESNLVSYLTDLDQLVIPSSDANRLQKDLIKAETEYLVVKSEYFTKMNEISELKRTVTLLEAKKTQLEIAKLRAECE

[4] = molecular target: T4, GFP-tagged Su(Hw)[1-219] (N terminus) (GFP-3C-bait-3C-His6) (D. melanogaster) (UniProt P08970)
T4 sequence: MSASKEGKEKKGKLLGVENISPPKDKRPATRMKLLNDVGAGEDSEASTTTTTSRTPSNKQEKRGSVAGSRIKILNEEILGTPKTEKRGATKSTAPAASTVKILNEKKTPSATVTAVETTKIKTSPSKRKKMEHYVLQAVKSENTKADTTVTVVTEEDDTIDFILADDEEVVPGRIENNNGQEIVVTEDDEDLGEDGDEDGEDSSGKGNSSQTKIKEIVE

[5] = molecular target: T5, GFP-tagged Su(Hw)[724-941] (C terminus) (D. melanogaster) (UniProt P08970)
T5 sequence: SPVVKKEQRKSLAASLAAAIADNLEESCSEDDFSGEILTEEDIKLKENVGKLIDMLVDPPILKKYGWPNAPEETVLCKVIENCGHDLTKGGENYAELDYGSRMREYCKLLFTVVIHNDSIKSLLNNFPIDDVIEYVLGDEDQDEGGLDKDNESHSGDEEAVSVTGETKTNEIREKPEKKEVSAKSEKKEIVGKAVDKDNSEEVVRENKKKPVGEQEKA

[6] = molecular target: T6, untagged full-length Cp190[1-1096], recombinant (D. melanogaster) (UniProt Q24478)
T6 sequence: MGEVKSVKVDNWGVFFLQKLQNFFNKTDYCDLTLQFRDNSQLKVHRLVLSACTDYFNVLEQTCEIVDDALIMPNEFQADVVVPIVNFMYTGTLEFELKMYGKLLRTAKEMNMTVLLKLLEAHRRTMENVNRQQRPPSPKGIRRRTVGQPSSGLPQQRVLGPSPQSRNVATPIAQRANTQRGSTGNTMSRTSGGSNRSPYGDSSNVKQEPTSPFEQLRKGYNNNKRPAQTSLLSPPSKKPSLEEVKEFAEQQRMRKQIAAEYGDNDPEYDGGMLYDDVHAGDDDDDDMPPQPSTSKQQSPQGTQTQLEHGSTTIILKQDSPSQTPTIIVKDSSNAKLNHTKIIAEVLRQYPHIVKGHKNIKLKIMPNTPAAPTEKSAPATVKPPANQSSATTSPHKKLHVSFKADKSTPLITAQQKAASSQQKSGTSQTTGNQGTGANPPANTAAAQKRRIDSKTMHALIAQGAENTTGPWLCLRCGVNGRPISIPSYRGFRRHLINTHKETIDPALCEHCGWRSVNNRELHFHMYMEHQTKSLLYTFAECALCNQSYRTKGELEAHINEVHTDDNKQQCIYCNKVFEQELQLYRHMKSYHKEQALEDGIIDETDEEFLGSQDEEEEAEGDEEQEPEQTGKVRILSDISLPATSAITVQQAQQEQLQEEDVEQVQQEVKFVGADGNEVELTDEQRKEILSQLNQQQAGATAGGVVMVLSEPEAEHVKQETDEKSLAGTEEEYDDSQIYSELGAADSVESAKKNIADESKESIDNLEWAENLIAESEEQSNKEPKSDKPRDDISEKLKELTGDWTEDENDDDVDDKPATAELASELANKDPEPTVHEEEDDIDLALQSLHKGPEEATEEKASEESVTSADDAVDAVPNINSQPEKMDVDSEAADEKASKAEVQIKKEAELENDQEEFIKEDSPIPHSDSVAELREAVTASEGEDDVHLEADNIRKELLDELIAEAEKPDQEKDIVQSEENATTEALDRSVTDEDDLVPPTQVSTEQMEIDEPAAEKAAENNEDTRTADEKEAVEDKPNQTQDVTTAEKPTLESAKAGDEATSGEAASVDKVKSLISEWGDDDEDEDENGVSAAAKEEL

Measured: binding

untagged Cp60[1-440], recombinant (from UniProt Q7K180)
binds: all assays above

These are yes or no findings as the source states them, for the method shown. In cells and extracts the contact can be indirect. A result given as binding can be weak or reduced; the word gives no strength. Sequences can lack the tags named with a protein.
